# From the M2OR odorant receptor database
# Chains of the proteins cited; added tags and fusions are not shown. Chains listed by the source or under a name are the forms on record and can include a tag or linker.
# OR1A1, as listed by the source: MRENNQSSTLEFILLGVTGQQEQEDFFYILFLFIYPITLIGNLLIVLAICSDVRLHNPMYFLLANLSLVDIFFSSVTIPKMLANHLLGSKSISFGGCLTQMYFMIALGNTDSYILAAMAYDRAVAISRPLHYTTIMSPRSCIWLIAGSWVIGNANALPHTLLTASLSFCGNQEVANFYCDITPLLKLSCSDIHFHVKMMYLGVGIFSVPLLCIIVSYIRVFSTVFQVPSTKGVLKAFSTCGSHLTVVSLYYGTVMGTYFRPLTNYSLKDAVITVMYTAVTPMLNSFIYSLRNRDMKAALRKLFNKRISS
# OR1A1 Y258F, as listed by the source, stated change not applied: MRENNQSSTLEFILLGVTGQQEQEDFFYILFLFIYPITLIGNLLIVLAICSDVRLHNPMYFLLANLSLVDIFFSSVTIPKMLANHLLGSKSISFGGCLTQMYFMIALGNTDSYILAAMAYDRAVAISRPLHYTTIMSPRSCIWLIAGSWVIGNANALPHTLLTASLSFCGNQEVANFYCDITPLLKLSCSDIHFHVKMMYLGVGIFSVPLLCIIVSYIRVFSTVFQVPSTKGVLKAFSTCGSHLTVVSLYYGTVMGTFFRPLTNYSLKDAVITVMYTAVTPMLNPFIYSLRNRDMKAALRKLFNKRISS
# OR1A1 Y276F, as listed by the source, stated change not applied: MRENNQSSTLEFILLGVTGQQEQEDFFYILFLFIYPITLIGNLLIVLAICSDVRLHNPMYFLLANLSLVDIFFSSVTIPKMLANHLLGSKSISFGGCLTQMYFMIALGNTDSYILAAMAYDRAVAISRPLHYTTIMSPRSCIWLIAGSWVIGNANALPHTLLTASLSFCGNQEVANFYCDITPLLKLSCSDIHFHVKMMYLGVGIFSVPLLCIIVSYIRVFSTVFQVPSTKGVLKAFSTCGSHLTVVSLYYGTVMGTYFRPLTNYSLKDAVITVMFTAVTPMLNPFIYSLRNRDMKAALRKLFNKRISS
# OR1A1 Y251M, as listed by the source, stated change not applied: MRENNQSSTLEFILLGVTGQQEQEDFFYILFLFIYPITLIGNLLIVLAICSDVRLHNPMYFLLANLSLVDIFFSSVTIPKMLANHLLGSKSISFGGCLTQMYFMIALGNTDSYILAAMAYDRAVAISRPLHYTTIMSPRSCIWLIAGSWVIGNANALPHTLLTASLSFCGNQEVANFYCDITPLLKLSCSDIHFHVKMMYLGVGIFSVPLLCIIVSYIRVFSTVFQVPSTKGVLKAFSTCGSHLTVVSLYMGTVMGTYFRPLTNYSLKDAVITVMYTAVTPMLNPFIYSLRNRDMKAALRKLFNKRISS
# OR1A1 T280M, as listed by the source, stated change not applied: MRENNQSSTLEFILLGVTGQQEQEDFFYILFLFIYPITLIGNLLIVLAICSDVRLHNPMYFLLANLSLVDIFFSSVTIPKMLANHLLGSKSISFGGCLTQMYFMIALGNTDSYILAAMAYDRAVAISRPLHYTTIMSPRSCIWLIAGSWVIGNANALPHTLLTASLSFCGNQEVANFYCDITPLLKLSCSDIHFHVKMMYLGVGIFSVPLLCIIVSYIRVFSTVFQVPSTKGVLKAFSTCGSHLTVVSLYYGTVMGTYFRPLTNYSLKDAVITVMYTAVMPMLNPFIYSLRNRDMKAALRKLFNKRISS
# OR1A1 Y251F, as listed by the source, stated change not applied: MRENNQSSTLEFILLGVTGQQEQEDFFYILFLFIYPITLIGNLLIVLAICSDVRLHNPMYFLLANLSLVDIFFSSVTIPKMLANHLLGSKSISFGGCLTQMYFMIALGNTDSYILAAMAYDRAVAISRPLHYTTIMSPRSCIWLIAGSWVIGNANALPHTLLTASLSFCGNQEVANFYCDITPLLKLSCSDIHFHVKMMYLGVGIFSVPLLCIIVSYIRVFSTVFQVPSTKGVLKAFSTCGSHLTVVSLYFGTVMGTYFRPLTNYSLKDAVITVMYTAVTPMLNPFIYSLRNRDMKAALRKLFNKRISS
# OR1A1 Y250F, as listed by the source, stated change not applied: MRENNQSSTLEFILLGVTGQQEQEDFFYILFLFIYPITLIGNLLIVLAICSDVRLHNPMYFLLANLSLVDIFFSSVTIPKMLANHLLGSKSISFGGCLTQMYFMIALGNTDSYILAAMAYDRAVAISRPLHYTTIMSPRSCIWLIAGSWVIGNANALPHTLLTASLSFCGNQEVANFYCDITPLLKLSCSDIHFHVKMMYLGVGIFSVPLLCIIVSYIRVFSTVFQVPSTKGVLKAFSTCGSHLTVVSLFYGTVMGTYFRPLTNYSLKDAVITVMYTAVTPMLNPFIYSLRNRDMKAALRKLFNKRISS
# OR1A1 Y276L, as listed by the source, stated change not applied: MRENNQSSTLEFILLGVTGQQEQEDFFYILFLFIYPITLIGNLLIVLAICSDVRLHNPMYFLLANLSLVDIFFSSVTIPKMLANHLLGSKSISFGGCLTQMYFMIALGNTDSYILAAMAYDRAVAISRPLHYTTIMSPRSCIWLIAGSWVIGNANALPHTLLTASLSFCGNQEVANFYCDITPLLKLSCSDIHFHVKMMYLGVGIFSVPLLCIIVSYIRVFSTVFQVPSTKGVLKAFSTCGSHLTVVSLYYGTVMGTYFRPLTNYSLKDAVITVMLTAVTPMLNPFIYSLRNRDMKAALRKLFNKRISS
# OR1A1 Y258M, as listed by the source, stated change not applied: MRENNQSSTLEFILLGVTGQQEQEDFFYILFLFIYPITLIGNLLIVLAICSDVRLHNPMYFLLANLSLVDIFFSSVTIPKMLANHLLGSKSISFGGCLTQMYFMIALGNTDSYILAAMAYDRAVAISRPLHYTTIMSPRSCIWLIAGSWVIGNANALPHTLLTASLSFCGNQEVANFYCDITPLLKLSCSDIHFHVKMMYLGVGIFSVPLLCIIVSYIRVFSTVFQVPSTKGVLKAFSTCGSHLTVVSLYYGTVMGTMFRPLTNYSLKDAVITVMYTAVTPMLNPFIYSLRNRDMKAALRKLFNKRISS
# Residue numbers refer to the chain shown, from its start. Only a part is listed here, and it is no random draw. Calls are pooled over several reports, among them a noisy single-well screen. The list shows a part of the results.
# What was measured:
# Conditions in all cases: stereoisomer not certain
# [1] = test system: T1, OR1A1
# T1 sequence (whole entry): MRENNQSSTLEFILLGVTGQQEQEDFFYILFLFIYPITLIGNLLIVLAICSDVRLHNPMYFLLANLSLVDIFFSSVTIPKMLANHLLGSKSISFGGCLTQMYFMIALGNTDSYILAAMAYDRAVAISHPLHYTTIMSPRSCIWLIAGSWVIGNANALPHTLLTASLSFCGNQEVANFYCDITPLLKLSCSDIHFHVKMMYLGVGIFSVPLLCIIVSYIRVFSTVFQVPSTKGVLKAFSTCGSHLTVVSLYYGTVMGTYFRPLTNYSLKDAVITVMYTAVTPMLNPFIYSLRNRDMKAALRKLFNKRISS
# Summary of the method: (§1)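 Each receptor–molecule pair is labelled responsive or non-responsive (inactive) according to whether the original authors judged the measured signal statistically different from baseline. The data were taken from the main text and supplementary material of published papers and checked for typos and inconsistencies. Assay methods differed by source, with transient luciferase assays in mammalian cell lines being common.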
# [2] = test system: T2, OR1A1; remark: listed apart in the source
# T2 sequence (whole entry): T1 sequence (whole entry) with H128R, V233M
# Summary of the method: as §1
# [3] = test system: T3, OR1A1; remark: listed apart in the source
# T3 sequence (whole entry): T1 sequence (whole entry) with H128R, P285S
# Summary of the method: as §1
# [4] = target: T4, OR1A2 (Homo sapiens) (UniProt Q9Y585)
# T4 sequence (whole entry): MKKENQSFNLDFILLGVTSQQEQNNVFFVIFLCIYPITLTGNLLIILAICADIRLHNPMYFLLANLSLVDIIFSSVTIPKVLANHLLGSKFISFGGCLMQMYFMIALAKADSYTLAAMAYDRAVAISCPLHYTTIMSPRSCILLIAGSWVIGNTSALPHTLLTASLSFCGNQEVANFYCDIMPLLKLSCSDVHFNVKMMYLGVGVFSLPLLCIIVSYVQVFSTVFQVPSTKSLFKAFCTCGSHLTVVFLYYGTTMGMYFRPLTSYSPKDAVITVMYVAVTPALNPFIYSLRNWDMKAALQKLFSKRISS
# Summary of the method: as §1
# [5] = test system: OR1A1 T280M
# Summary of the method: as §1
# [6] = test system: OR1A1 Y250F
# Summary of the method: as §1
# [7] = test system: OR1A1 Y251F
# Summary of the method: as §1
# [8] = test system: OR1A1 Y251M
# Summary of the method: as §1
# [9] = test system: OR1A1 Y258F
# Summary of the method: as §1
# [10] = test system: OR1A1 Y258M
# Summary of the method: as §1
# [11] = test system: OR1A1 Y276F
# Summary of the method: as §1
# [12] = test system: OR1A1 Y276L
# Summary of the method: as §1
# [13] = test system: OR1A2 A108G K109N T254V V277T
# Summary of the method: as §1
# [14] = test system: OR1A2 A108G K109N T254V
# Summary of the method: as §1
# [15] = test system: OR1A2 A108G K109N V205I T254V V277T
# Summary of the method: as §1
# [16] = test system: OR1A2 A108G K109N V205I T254V
# Summary of the method: as §1
# [17] = test system: OR1A2 A108G K109N V205I V277T
# Summary of the method: as §1
# [18] = test system: OR1A2 A108G K109N V205I
# Summary of the method: as §1
# [19] = test system: OR1A2 A108G K109N
# Summary of the method: as §1
# [20] = test system: OR1A2 A108G V205I
# Summary of the method: as §1
# 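Further: active if original authors judged signal statistically different from baseline.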
compound,measurement,setting,value
CC(C)CC(=O)O,odorant receptor agonist call,[1],inactive
same,odorant receptor agonist call,[2],active
same,odorant receptor agonist call,[3],inactive
same,odorant receptor agonist call,[4],inactive
C=C(C)C1CC=C(C)C(=O)C1 (stereo not drawn),odorant receptor agonist call,[5],active
same,odorant receptor agonist call,[6],active
same,odorant receptor agonist call,[7],active
same,odorant receptor agonist call,[8],inactive
same,odorant receptor agonist call,[9],inactive
same,odorant receptor agonist call,[10],inactive
same,odorant receptor agonist call,[11],active
same,odorant receptor agonist call,[12],inactive
same,odorant receptor agonist call,[1],active
same,odorant receptor agonist call,[2],active
same,odorant receptor agonist call,[3],active
same,odorant receptor agonist call,[4],inactive
same,odorant receptor agonist call,[13],inactive
same,odorant receptor agonist call,[14],inactive
same,odorant receptor agonist call,[15],inactive
same,odorant receptor agonist call,[16],inactive
same,odorant receptor agonist call,[17],inactive
same,odorant receptor agonist call,[18],inactive
same,odorant receptor agonist call,[19],inactive
same,odorant receptor agonist call,[20],inactive
O=C1CCCCCCCCCCCC(=O)OCCO1,odorant receptor agonist call,[1],inactive
same,odorant receptor agonist call,[2],inactive
same,odorant receptor agonist call,[3],inactive
same,odorant receptor agonist call,[4],inactive
CCCCCCCC=O,odorant receptor agonist call,[1],inactive
same,odorant receptor agonist call,[2],inactive
same,odorant receptor agonist call,[3],inactive
same,odorant receptor agonist call,[4],active
CC12C=CCC1C1CCC3CC(=O)CCC3(C)C1CC2 (stereo not drawn),odorant receptor agonist call,[1],inactive
same,odorant receptor agonist call,[2],inactive
same,odorant receptor agonist call,[3],inactive
COc1ccccc1O,odorant receptor agonist call,[1],inactive
same,odorant receptor agonist call,[2],active
same,odorant receptor agonist call,[3],inactive
same,odorant receptor agonist call,[4],inactive
CC(=O)OCC=C(C)CCC=C(C)C,odorant receptor agonist call,[1],inactive
same,odorant receptor agonist call,[2],inactive
same,odorant receptor agonist call,[3],inactive
same,odorant receptor agonist call,[4],inactive
CCCCCCCCCC=O,odorant receptor agonist call,[1],inactive
same,odorant receptor agonist call,[2],active
same,odorant receptor agonist call,[3],inactive
CCCCCC(=O)O,odorant receptor agonist call,[1],inactive
same,odorant receptor agonist call,[2],inactive
same,odorant receptor agonist call,[3],inactive
same,odorant receptor agonist call,[4],inactive
CCCCCCCCOC(C)=O,odorant receptor agonist call,[1],inactive
same,odorant receptor agonist call,[2],inactive
same,odorant receptor agonist call,[3],inactive
same,odorant receptor agonist call,[4],inactive
CCC1(O)C2(C)CCC(C2)C1(C)C (stereo not drawn),odorant receptor agonist call,[1],inactive
same,odorant receptor agonist call,[2],active
same,odorant receptor agonist call,[3],inactive
same,odorant receptor agonist call,[4],inactive
CC1CCC(C(C)C)C(O)C1 (stereo not drawn),odorant receptor agonist call,[1],active
same,odorant receptor agonist call,[2],active
same,odorant receptor agonist call,[3],active
same,odorant receptor agonist call,[4],inactive
CC(C)=CCCC(C)=CC=O,odorant receptor agonist call,[1],inactive
same,odorant receptor agonist call,[2],active
same,odorant receptor agonist call,[3],inactive
same,odorant receptor agonist call,[4],active
O=C1CCCCCCCCCCCCCCO1,odorant receptor agonist call,[1],inactive
same,odorant receptor agonist call,[2],inactive
same,odorant receptor agonist call,[3],inactive
same,odorant receptor agonist call,[4],inactive
C=CCc1ccc(OC(C)=O)c(OC)c1,odorant receptor agonist call,[1],inactive
same,odorant receptor agonist call,[2],inactive
same,odorant receptor agonist call,[3],inactive
same,odorant receptor agonist call,[4],inactive
CC(C)CCC(=O)O,odorant receptor agonist call,[1],inactive
same,odorant receptor agonist call,[2],inactive
same,odorant receptor agonist call,[3],inactive
same,odorant receptor agonist call,[4],inactive
CC1=NC(C)SC1C (stereo not drawn),odorant receptor agonist call,[1],inactive
same,odorant receptor agonist call,[2],inactive
same,odorant receptor agonist call,[3],inactive
same,odorant receptor agonist call,[4],inactive
CCCCCCOC(=O)CCC,odorant receptor agonist call,[1],inactive
same,odorant receptor agonist call,[2],inactive
same,odorant receptor agonist call,[3],inactive
same,odorant receptor agonist call,[4],inactive
CC12CCC(CC1)C(C)(C)O2,odorant receptor agonist call,[1],inactive
same,odorant receptor agonist call,[2],inactive
same,odorant receptor agonist call,[3],inactive
same,odorant receptor agonist call,[4],inactive
O=C1CCCCC1,odorant receptor agonist call,[1],inactive
same,odorant receptor agonist call,[2],inactive
same,odorant receptor agonist call,[3],inactive
same,odorant receptor agonist call,[4],inactive
c1ccc(Oc2ccccc2)cc1,odorant receptor agonist call,[1],inactive
same,odorant receptor agonist call,[2],active
same,odorant receptor agonist call,[3],inactive
same,odorant receptor agonist call,[4],inactive
C=CCc1ccc(OC)c(OC)c1,odorant receptor agonist call,[1],inactive
same,odorant receptor agonist call,[2],active
same,odorant receptor agonist call,[3],inactive
same,odorant receptor agonist call,[4],inactive
CC(=O)C(C)=O,odorant receptor agonist call,[1],inactive
same,odorant receptor agonist call,[2],active
same,odorant receptor agonist call,[3],inactive
same,odorant receptor agonist call,[4],inactive
CC12C=CCC1C1CCC3=CC(=O)CCC3(C)C1CC2 (stereo not drawn),odorant receptor agonist call,[1],inactive
same,odorant receptor agonist call,[2],inactive
same,odorant receptor agonist call,[3],inactive
same,odorant receptor agonist call,[4],inactive
CC12CCC(C1)C(C)(C)C2=O (stereo not drawn),odorant receptor agonist call,[1],inactive
same,odorant receptor agonist call,[2],inactive
same,odorant receptor agonist call,[3],inactive
same,odorant receptor agonist call,[4],inactive
COC(=O)c1ccccc1O,odorant receptor agonist call,[1],inactive
same,odorant receptor agonist call,[2],inactive
same,odorant receptor agonist call,[3],inactive
same,odorant receptor agonist call,[4],inactive
CCCCCC(C)=O,odorant receptor agonist call,[1],inactive
same,odorant receptor agonist call,[2],active
same,odorant receptor agonist call,[3],inactive
same,odorant receptor agonist call,[4],inactive
CC=Cc1ccc(O)c(OC)c1,odorant receptor agonist call,[1],active
same,odorant receptor agonist call,[2],active
same,odorant receptor agonist call,[3],inactive
same,odorant receptor agonist call,[4],inactive
CC(C)C=O,odorant receptor agonist call,[1],inactive
same,odorant receptor agonist call,[2],inactive
same,odorant receptor agonist call,[3],inactive
same,odorant receptor agonist call,[4],inactive
COC(=O)c1ccccc1,odorant receptor agonist call,[1],inactive
same,odorant receptor agonist call,[2],inactive
same,odorant receptor agonist call,[3],inactive
same,odorant receptor agonist call,[4],inactive
C=C(C)C1CCC2=CC(=O)CC(C)C2(C)C1 (stereo not drawn),odorant receptor agonist call,[2],active
CC(=O)OC(C)(C)C1CC=C(C)CC1 (stereo not drawn),odorant receptor agonist call,[1],active
same,odorant receptor agonist call,[2],active
same,odorant receptor agonist call,[3],inactive
same,odorant receptor agonist call,[4],inactive
c1cnccn1,odorant receptor agonist call,[1],inactive
same,odorant receptor agonist call,[2],inactive
same,odorant receptor agonist call,[3],inactive
same,odorant receptor agonist call,[4],inactive
CCCCCCCCC=O,odorant receptor agonist call,[4],active
CC(C)C(=O)O,odorant receptor agonist call,[1],inactive
same,odorant receptor agonist call,[2],inactive
same,odorant receptor agonist call,[3],inactive
same,odorant receptor agonist call,[4],inactive
CCCCCOC(C)=O,odorant receptor agonist call,[1],inactive
same,odorant receptor agonist call,[2],inactive
same,odorant receptor agonist call,[3],inactive
same,odorant receptor agonist call,[4],inactive
CCCCCCCC=CC=O,odorant receptor agonist call,[1],inactive
same,odorant receptor agonist call,[2],active
same,odorant receptor agonist call,[3],inactive
same,odorant receptor agonist call,[4],inactive
CCC=CCCO,odorant receptor agonist call,[1],inactive
same,odorant receptor agonist call,[2],inactive
same,odorant receptor agonist call,[3],inactive
same,odorant receptor agonist call,[4],inactive
COc1cc(C)ccc1O,odorant receptor agonist call,[1],inactive
same,odorant receptor agonist call,[2],inactive
same,odorant receptor agonist call,[3],inactive
same,odorant receptor agonist call,[4],inactive
CCCCO,odorant receptor agonist call,[1],inactive
same,odorant receptor agonist call,[2],inactive
same,odorant receptor agonist call,[3],inactive
same,odorant receptor agonist call,[4],inactive
CC(=O)OC1CC2CCC1(C)C2(C)C (stereo not drawn),odorant receptor agonist call,[1],inactive
same,odorant receptor agonist call,[2],inactive
same,odorant receptor agonist call,[3],inactive
same,odorant receptor agonist call,[4],inactive
O=CCc1ccccc1,odorant receptor agonist call,[1],inactive
same,odorant receptor agonist call,[2],inactive
same,odorant receptor agonist call,[3],inactive
same,odorant receptor agonist call,[4],inactive
CC1COCc2cc3c(cc21)C(C)(C)C(C)C3(C)C (stereo not drawn),odorant receptor agonist call,[1],active
same,odorant receptor agonist call,[2],inactive
same,odorant receptor agonist call,[3],active
same,odorant receptor agonist call,[4],inactive
C=CCSCC=C,odorant receptor agonist call,[1],inactive
same,odorant receptor agonist call,[2],active
same,odorant receptor agonist call,[3],inactive
same,odorant receptor agonist call,[4],inactive
CC(C)(C)c1ccc(CCC=O)cc1,odorant receptor agonist call,[1],inactive
same,odorant receptor agonist call,[2],inactive
same,odorant receptor agonist call,[3],inactive
same,odorant receptor agonist call,[4],inactive
CCCCCCC=O,odorant receptor agonist call,[4],active
C=CC(C)(O)CCC=C(C)C (stereo not drawn),odorant receptor agonist call,[1],inactive
same,odorant receptor agonist call,[2],inactive
same,odorant receptor agonist call,[3],inactive
same,odorant receptor agonist call,[4],inactive
COc1cc(C=O)ccc1O,odorant receptor agonist call,[1],inactive
same,odorant receptor agonist call,[2],active
same,odorant receptor agonist call,[3],inactive
same,odorant receptor agonist call,[4],inactive
CC(C)(O)CCCC1=CCC(C=O)CC1 (stereo not drawn),odorant receptor agonist call,[2],active
CCCC(=O)O,odorant receptor agonist call,[1],inactive
same,odorant receptor agonist call,[2],active
same,odorant receptor agonist call,[3],inactive
same,odorant receptor agonist call,[4],inactive
CC(=O)c1ccccc1,odorant receptor agonist call,[1],inactive
same,odorant receptor agonist call,[2],active
same,odorant receptor agonist call,[3],inactive
same,odorant receptor agonist call,[4],inactive
CC1=CCC(C(C)(C)O)CC1 (stereo not drawn),odorant receptor agonist call,[1],inactive
same,odorant receptor agonist call,[2],active
same,odorant receptor agonist call,[3],active
same,odorant receptor agonist call,[4],inactive
CCCCCCCCCCC=O,odorant receptor agonist call,[1],inactive
same,odorant receptor agonist call,[2],active
same,odorant receptor agonist call,[3],inactive
same,odorant receptor agonist call,[4],inactive
CCCCCCCOC(C)=O,odorant receptor agonist call,[1],inactive
same,odorant receptor agonist call,[2],inactive
same,odorant receptor agonist call,[3],inactive
same,odorant receptor agonist call,[4],inactive

# A different layout for part of the listing above:
compound | measurement | setting | value
CC(C)CCC(=O)O | odorant receptor agonist call | [3] | inactive
same | odorant receptor agonist call | [4] | inactive
CC1=NC(C)SC1C (stereo not drawn) | odorant receptor agonist call | [1] | inactive

# Random excerpt: 5 entries already listed.
compound,measurement,setting,value
CC1COCc2cc3c(cc21)C(C)(C)C(C)C3(C)C (stereo not drawn),odorant receptor agonist call,[1],active
CC(C)(C)c1ccc(CCC=O)cc1,odorant receptor agonist call,[1],inactive
COc1ccccc1O,odorant receptor agonist call,[3],inactive
CC(C)C(=O)O,odorant receptor agonist call,[1],inactive
CCCCCCC=O,odorant receptor agonist call,[4],active

# Shown with bars between the fields: part of the list above
compound | measurement | setting | value
CCCCCCCCCC=O | odorant receptor agonist call | [3] | inactive
CC12CCC(CC1)C(C)(C)O2 | odorant receptor agonist call | [1] | inactive
CC12CCC(C1)C(C)(C)C2=O (stereo not drawn) | odorant receptor agonist call | [3] | inactive
COC(=O)c1ccccc1O | odorant receptor agonist call | [1] | inactive
CC(C)C(=O)O | odorant receptor agonist call | [2] | inactive
same | odorant receptor agonist call | [3] | inactive
